Measurements: PubChem BioAssay AID2685 (National Center for Advancing Translational Sciences (NCATS), 2010)
About 2,100 (0.66%) of roughly 320,000 compounds were called active. The shares of active, inactive and inconclusive entries below differ from those in the screen. The call rests on the fitted dose curve; in most records, active means well fitted inhibition curve with a large enough effect in the signal ratio, with a control signal flat (not every such curve was filed as active); inconclusive means small, poorly fitted or top-dose-only effect, or effect the other way, or a change in a side signal; inactive means flat fitted curve, though single readings scatter; the % refers to the signal ratio. Where the call is inconclusive, the potency comes from a doubtful curve fit.

test: qHTS Assay for Lipid Storage Modulators in Drosophila S3 Cells; settings: BODIPY lipid droplet fluorescence, 18-24 h, cells fed with added oleic acid; lipid storage change, negative = inhibition: at 46.1 µM (top of the series) unless noted
Method in brief: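 Drosophila S3 cells got compounds at several concentrations plus oleic acid (400 uM solution). Laser-scanning cytometry with 488 nm excitation read lipid droplets at 500-530 nm and cells at 575-640 nm. Percent activity was relative to 20 uM Triacsin C.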
On the % scale 0 is the no-effect control and ±100 the full control effect; potency means the concentration at half of the fitted maximal effect.

SMILES | lipid storage change, negative = inhibition | Potency | outcome
C=CCn1c(SCC(=O)NC2CCCCC2)nnc1-c1ccc(OC)cc1 | inconclusive: 3.77% |  | 
Cn1cc(C(=O)Nc2ccc(C#N)cc2)c2ccccc2c1=O |  | inconclusive: 0.651 µM [activator, single point] | 
CC(=O)N1CCc2c(sc(NC(=O)CCS(=O)(=O)c3ccccc3)c2C#N)C1 | inconclusive: -100% |  | 
COc1ccc(C2c3ccc4ccccc4c3Oc3ncn(CCO)c(=N)c32)cc1 (centres undefined) | inconclusive: 28.6% |  | 
COc1ccccc1NC(=O)N1CCN(c2cccc(C(F)(F)F)c2)CC1 | inconclusive: 19% |  | 
COc1cc(C(=O)Nc2ccc(N3CCCS3(=O)=O)cc2)c([N+](=O)[O-])cc1OC | inconclusive: -0.878% |  | 
CC1CCc2cc(F)cc3c(O)c(C(=O)NCCN(C)C)c(=O)n1c23 (centres undefined) | inconclusive: 13.7% |  | 
Cc1cc(C)n(-c2cccc(C(=O)O)c2)n1 | inconclusive: 16.2% |  | 
COc1cc(/C=N\Nc2nc(-c3cccs3)c(NC(C)=O)s2)ccc1O | inconclusive: 17.2% |  | 
Cc1ccc(OCC(=O)O/N=C(\N)Cc2ccc([N+](=O)[O-])cc2)cc1C | inconclusive: 34.4% |  | 
CCOC(=O)Cn1c(=N)n(Cc2ccccc2)c2ccccc21 | inconclusive: 15.7% |  | 
Cc1nc(CS(=O)(=O)c2ccccc2)cc(N2CCOCC2)n1 | inconclusive: 15.1% |  | 
Cc1ccc(C(=O)c2c3ccccc3[n+]([O-])n2CCC(=O)O)cc1 |  | inconclusive: 0.411 µM [activator, full curve] | 
O=C1c2cc(S(=O)(=O)NCCCO)ccc2-c2ccc(S(=O)(=O)NCCCO)cc21 |  | inconclusive: 29.1 µM [falling, single point] | 
CC(=O)NC(Cc1cccc(F)c1)C(=O)NC1CCN(c2nnnn2-c2ccccc2)CC1 (centres undefined) | inconclusive: 26.8% |  | 
CCCCOP(=O)(OCCCC)C1(NS(=O)(=O)c2ccccc2)C=CC(=O)c2ccccc21 (centres undefined) | inconclusive: -32.2% |  | 
O=C(NCC(=O)N(c1cccnc1)C(C(=O)NC1CCCCC1)c1ccccc1F)c1ccco1 (centres undefined) | inconclusive: 39.7% |  | 
CC(C(=O)NC(=O)NC1CCCCC1)N1CCN(C(c2ccccc2)c2ccccc2)CC1 (centres undefined) | inconclusive: -22.2% |  | 
COc1ccc(C(=O)OCC(=O)NC2CC2)cc1OC |  | inconclusive: 2.59 µM [falling, partial curve, poor fit] | 
CCC(C)(O)c1[nH]c2ccc(C#N)cc2c1C (centres undefined) |  | inconclusive: 6.51 µM [activator, single point] | 
CCN(CC(=O)NC1CCS(=O)(=O)C1)S(=O)(=O)c1ccccc1Cl (centres undefined) | inconclusive: -4.79% |  | 
S=C(NCc1ccncc1)Nc1ccc(Cl)c(Cl)c1 | inconclusive: 160% |  | 
CCCCOC(=O)C(C)Oc1ccc(=O)n(-c2ccccc2)n1 (centres undefined) |  | inconclusive: 6.51 µM [rising, partial curve, poor fit] | 
O=C1N=C(N2CCCCC2)S/C1=C\c1ccncc1 |  | inconclusive: 8.2 µM [activator, partial curve, poor fit] | 
COC(=O)C1=C(C)N(Cc2ccccc2)C(=NCCc2cccnc2)N[C@H]1c1ccc(Br)cc1 |  | inconclusive: 16.4 µM [falling, single point] | 
CCNC(=O)c1ccc(C23CC4CC(CC(C4)C2)C3)o1 | inconclusive: -31.7% |  | 
CCN(CC)S(=O)(=O)c1ccc(C(=O)OCCN2C(=O)c3cccc4c(N5CCOCC5)ccc(c34)C2=O)cc1 | inconclusive: 3.62% |  | 

SMILES | lipid storage change, negative = inhibition | Potency | outcome
C#CC(=O)N(c1cc(OC)ccc1OC)C(C(=O)NC1CCCC1)c1cccs1 (centres undefined) |  | inconclusive: 16.4 µM [falling, partial curve] | 
O=C(Nc1cccc(S(=O)(=O)N2CCCCC2)c1)c1ccccn1 | inactive: 0.112% |  | 
Cc1cccn2c(=O)nc(SCC(=O)Nc3cccc4ccccc34)nc12 | inconclusive |  | 
Cc1cc([N+](=O)[O-])nn1CC(=O)c1ccccc1 | inconclusive: -53.5% [at 0.369 µM] |  | 
O=C(NN=C1CCCCCC1)c1cccnc1 | inconclusive: 37.1% |  | 
Cc1ccc(C)c(S(=O)(=O)N2CCN(C(=O)c3ccnn3C)CC2)c1 | inconclusive: -30.7% |  | 
COc1ccccc1-n1c(SCC(=O)N2CCOCC2)nc(O)c(Cc2ccccc2)c1=O |  | active: 13 µM | 
CC(C)(C)c1ccc(-c2nc(N)nc(N)n2)cc1 | inconclusive: 14.1% |  | 
CCN(CC)C(=O)C(Oc1ccc(C)nc1[N+](=O)[O-])c1ccccc1 (centres undefined) | inconclusive: -24% |  | 
COc1ccc(C)cc1S(=O)(=O)N1CCCCC1 | inactive: 9.28% |  | 
Cc1onc(-c2ccccc2)c1C(=O)N1CCN(CCc2ccccc2)CC1 | inconclusive: 27.2% |  | 
S=c1[nH]nc(-c2ccncc2)n1/N=C/C(Cl)=C\c1ccccc1 | inconclusive: -23.3% |  | 
CCC(C)NCCCOc1c(C)cc(C)cc1Br (centres undefined) | inconclusive: -49% |  | 
COc1cccc(NC(=O)NNC(=O)C(C)Oc2ccc3ccccc3c2)c1 (centres undefined) | inconclusive: 27.7% |  | 
CC1=NN(C(=S)Nc2ccccc2)C(C)(C)C1 | inconclusive: 30.9% |  | 
C/C(=N\NC(=O)c1ccccc1O)c1c(O)cc(C)oc1=O | inconclusive: -7.4% |  | 
CCOc1ccc(CCN2C(=O)C3C4CCC(O4)C3C2=O)cc1OCC (centres undefined) | inconclusive: 6.02% |  | 
Cc1cc(OCC(=O)Nc2nccs2)c2c(C)cc(=O)oc2c1 |  | inconclusive: 0.651 µM [falling, single point] | 
Cc1cc(C)c(NC(=O)CN2C(=O)CC(C)S(=O)(=O)c3ccccc32)c(C)c1 (centres undefined) |  |  | inactive [at 46.1 µM]
CN(C)S(=O)(=O)c1ccc(C(=O)NCC(=O)N/N=C/c2ccccc2Cl)cc1 | inconclusive: -13.7% |  | 
Cc1cccc(-c2nc(S(=O)(=O)c3ccccc3)c(N3CCOCC3)o2)c1 | inconclusive: 10.2% |  | 
CC(C)=CC(=O)OCC(=O)Nc1cc(C)ccc1C | inconclusive: 45.6% |  | 
O=c1c2ccccc2[nH]c(=S)n1CCC1=CCCCC1 |  | inconclusive: 20.6 µM [activator, single point] | 
COc1ccc(C(=O)Nc2ccc(Oc3nc(C)nc4sc(-c5ccccc5)cc34)cc2)cc1OC | inconclusive: 4.6% |  | 
Cc1ccc(C(C)C)c(OCC(=O)NCC(c2cccs2)N2CCOCC2)c1 (centres undefined) |  | inconclusive: 2.31 µM [falling, full curve] | 
CC(=O)Nc1cccc(NC(=O)CSc2nc(=O)n(Cc3ccccn3)c3c2CCC3)c1 | inconclusive |  | 
COc1ccc(N2CCc3c(C)nc4c(OC)cc(OC)cc4c32)cc1 | inconclusive: 5.58% |  | 

SMILES | lipid storage change, negative = inhibition | Potency | outcome
Clc1ccc(CN2CCN(c3ncccn3)CC2)c(Cl)c1 |  | inconclusive: 25.9 µM [activator, partial curve] | 
O=C(/C=C/c1ccco1)N(c1ccccn1)c1ccccn1 |  | inconclusive: 23.1 µM [rising, single point] | 
CCc1c(C)sc(NC(=O)c2cc(-c3cc(OC)ccc3OC)on2)c1C#N | inconclusive: 26.5% |  | 
Cc1ccc(NS(=O)(=O)c2ccc(C(=O)N3CCN(c4ncccn4)CC3)cc2)cc1 | inconclusive: -13.8% |  | 
CN(C)/C=N/c1cc(=O)[nH]c(=O)n1CC1CC1 | inconclusive: -0.106% |  | 
CN(Cc1ccccc1)c1ccc2nnc(-c3ccccc3)n2n1 |  | inconclusive: 4.11 µM [activator, partial curve] | 
COc1ccc(Nc2oc(-c3ccccc3F)nc2C#N)cc1 | inconclusive: 0.171% |  | 
Cc1ccccc1-n1c(Cn2c(=O)sc3ccccc32)nnc1SCC(=O)N1CCOCC1 | inactive: -10.7% |  | 
CC(C)Oc1ccc(N2CC(C(=O)Nc3ccc4c(c3)OCO4)CC2=O)cc1 (centres undefined) | inconclusive: -17.2% [at 9.22 µM] |  | 
COc1ccccc1NC(=O)c1cc2ccccc2nc1C | inconclusive: 23.3% |  | 
C=C(C)CNC(=S)N/N=C(\C)c1ccc(OC)cc1 |  | inconclusive: 6.51 µM [activator, single point] | 
CCNC(=S)N1CCN(c2nc(-c3cccc(OC)c3)cs2)CC1 | inconclusive: -26.3% |  | 
CCOC(=O)CSc1cc(CS(C)(=O)=O)nc(-c2ccccn2)n1 | inconclusive: -13.5% |  | 
CC(=O)c1cccc(NC(=O)COc2ccccc2C(=O)c2cc(C#N)c(=O)n(C3CCCCC3)c2)c1 | inconclusive: 13.5% |  | 
CN(Cc1ccccc1)S(=O)(=O)c1ccc(Cl)c(C(=O)N2CCC2)c1 | inconclusive: 24.8% |  | 
CC(C)[C@H](NC(=O)c1cccc(S(=O)(=O)N2CCOCC2)c1)C(=O)Nc1nccs1 | inconclusive: 3.81% |  | 
CCC(=O)Nc1cc(-c2nnc(OC)c3ccccc23)ccc1N1CCOCC1 | inconclusive: 0.21% |  | 
COc1ccc(CNC(=O)COC(=O)c2cccnc2Nc2cccc(C(F)(F)F)c2)cc1 | inconclusive: -1.04% |  | 
COC(=O)C(C(=O)OC)c1ccc(-n2cccc2)cc1 | inconclusive: -23.5% |  | 
NS(=O)(=O)c1ccc(N/N=C/c2cn(-c3ccccc3)nc2-c2ccccc2)c([N+](=O)[O-])c1 |  | inconclusive: 0.231 µM [falling, full curve, poor fit] | 
COc1cccc(/C=C/C(=O)OCC(=O)NC(=O)NC2CCCCC2)c1 | inconclusive |  | 
CCCn1c(C(O)c2ccc3c(c2)OCO3)nc2ccccc21 (centres undefined) |  | inconclusive: 14.6 µM [activator, single point] | 
O=C(COC(=O)c1ccccc1Br)Nc1nnc(-c2ccccc2)o1 | inconclusive: -0.288% |  | 
Nc1nnc(/C=C/c2cccc([N+](=O)[O-])c2)s1 |  | inconclusive: 6.51 µM [activator, single point] | 
COC(=O)N/N=C/c1cn(CC(C)COc2ccccc2)c2ccccc12 (centres undefined) | inconclusive: 4.66% |  | 

Among those listed so far, these have a furan ring, fused or not.
SMILES | lipid storage change, negative = inhibition | Potency | outcome
O=C(NCC(=O)N(c1cccnc1)C(C(=O)NC1CCCCC1)c1ccccc1F)c1ccco1 (centres undefined) | inconclusive: 39.7% |  | 
CCNC(=O)c1ccc(C23CC4CC(CC(C4)C2)C3)o1 | inconclusive: -31.7% |  | 
O=C(/C=C/c1ccco1)N(c1ccccn1)c1ccccn1 |  | inconclusive: 23.1 µM [rising, single point] | 
